From PMC3379939
These are yes or no findings as the source states them, for the method shown. In cells and extracts the contact can be indirect. Some results given as binding are weak or reduced against the parent protein; the word gives no strength.

Chains of the proteins cited; added tags and fusions are not shown.
UniProt P19338: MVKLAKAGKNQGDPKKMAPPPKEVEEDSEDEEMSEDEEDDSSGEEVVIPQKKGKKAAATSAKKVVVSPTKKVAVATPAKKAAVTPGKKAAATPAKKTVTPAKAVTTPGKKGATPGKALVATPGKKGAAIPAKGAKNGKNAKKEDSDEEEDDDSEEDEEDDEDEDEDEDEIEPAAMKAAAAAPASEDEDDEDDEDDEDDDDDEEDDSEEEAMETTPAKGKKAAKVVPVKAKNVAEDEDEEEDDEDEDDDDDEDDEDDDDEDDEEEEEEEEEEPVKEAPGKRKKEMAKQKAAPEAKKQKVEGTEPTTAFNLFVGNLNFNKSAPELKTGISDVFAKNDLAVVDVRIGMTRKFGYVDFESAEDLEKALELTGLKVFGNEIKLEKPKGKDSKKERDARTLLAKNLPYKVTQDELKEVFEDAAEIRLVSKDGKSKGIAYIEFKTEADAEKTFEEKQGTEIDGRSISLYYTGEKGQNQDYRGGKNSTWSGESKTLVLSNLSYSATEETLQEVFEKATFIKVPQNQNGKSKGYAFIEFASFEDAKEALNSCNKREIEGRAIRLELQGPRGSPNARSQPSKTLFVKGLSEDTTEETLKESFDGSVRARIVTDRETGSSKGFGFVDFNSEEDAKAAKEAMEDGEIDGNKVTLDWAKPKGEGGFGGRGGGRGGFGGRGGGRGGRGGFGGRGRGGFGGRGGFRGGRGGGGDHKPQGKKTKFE

T1: Nucleolin (NCL), endogenous in chicken embryo CAM (chicken (endogenous in chicken embryo CAM)) (UniProt P15771)
T1 sequence: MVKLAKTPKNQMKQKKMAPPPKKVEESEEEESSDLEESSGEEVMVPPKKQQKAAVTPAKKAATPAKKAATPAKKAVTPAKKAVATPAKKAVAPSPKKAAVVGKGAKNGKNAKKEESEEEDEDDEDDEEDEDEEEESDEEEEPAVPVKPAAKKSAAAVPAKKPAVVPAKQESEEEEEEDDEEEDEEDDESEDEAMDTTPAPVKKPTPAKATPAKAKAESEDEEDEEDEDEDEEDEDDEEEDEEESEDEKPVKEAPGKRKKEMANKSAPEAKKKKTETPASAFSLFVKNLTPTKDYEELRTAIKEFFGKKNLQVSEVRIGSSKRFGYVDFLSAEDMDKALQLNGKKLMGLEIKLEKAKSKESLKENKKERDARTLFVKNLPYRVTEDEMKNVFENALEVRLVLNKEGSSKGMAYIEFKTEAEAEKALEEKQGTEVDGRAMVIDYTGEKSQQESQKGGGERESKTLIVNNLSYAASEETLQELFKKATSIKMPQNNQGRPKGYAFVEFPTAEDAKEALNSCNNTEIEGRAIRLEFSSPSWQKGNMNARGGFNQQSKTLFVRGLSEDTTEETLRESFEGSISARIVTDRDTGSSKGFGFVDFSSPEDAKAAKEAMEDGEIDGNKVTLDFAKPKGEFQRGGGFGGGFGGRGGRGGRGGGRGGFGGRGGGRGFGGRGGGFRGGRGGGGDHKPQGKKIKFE


Tests used:
[1] = target: T1, Nucleolin (NCL), endogenous in chicken embryo CAM (chicken (endogenous in chicken embryo CAM)); test: co-IP; 3 mg total protein of chicken embryo CAM extracts from different developmental stages; homogenised in PBS with 1% Triton X-100, 0.1% SDS; primary antibody 16 h at 4°C, protein A- and G-agarose beads; Western blot of the precipitate
[2] = target: Nucleolin (NCL), endogenous in human cells (human (endogenous in HUVEC and U87MG)) (UniProt P19338); test: co-IP; HUVEC lysates in PBS with 1% Triton X-100, 0.1% SDS; immunoprecipitation for IgG, PTN or NCL, Western blot for NCL or PTN respectively
[3] = target: Nucleolin (NCL), endogenous in human cells (human (endogenous in HUVEC and U87MG)) (UniProt P19338); test: co-IP; nuclear, cytosolic and membrane fractions of U87MG cells, equal total protein; immunoprecipitated for NCL or PTN, Western blot for PTN or NCL

Binder | binding [1] | binding [2] | binding [3]
Pleiotrophin (PTN), endogenous in chicken embryo chorioallantoic membrane (CAM) (ligand, UniProt P32760 31-165) GKKEKPEKKAKKSDCGEWQWSVCVPTNGDCGLGTREGTRTGAECKQTTKTQKCKIPCNWKKQFGAECKYQFQAWGECDLNTALKTRTGNLKRALHNADCQKTVTISKPCGKLTKPKPQESKKKKKEGKKQEKMLD | binds | – | –
Pleiotrophin (PTN), endogenous in human cells (ligand, UniProt P21246 33-168) GKKEKPEKKVKKSDCGEWQWSVCVPTSGDCGLGTREGTRTGAECKQTMKTQRCKIPCNWKKQFGAECKYQFQAWGECDLNTALKTRTGSLKRALHNAECQKTVTISKPCGKLTKPKPQAESKKKKKEGKKQEKMLD | – | binds | binds
